Laboratory results as given in patent US20250352517A1, “THERAPEUTIC OR PROPHYLACTIC AGENT FOR COVID19 WHICH COMPRISES SELENONEINE” (National University Corporation Chiba University, priority 2021, published 2025).
Some entries share one result that the patent states for a list of compounds.

Molecular target: M^pro of SARS-COV2 (Severe acute respiratory syndrome coronavirus 2, UniProt P0DTD1)
Test: Inhibitory activity against M^pro of SARS-COV2 at 1 μM test compound, Example 5
Type: biochemical
Conditions: 2 μg/ml M^pro, measured 1 minute after addition, FIG. 10
Method: The M^pro was introduced into a plasmid having GST and a histidine tag (FIG. 6), and the resulting plasmid was used for transformation of the E. coli BL21 (DE3) strain. The E. coli BL21 (DE3) strain was cultured at 37° C. to allow expression of M^pro protein. The cell bodies were recovered, and M^pro protein was purified using a binding agent for the histidine tag. The GST and the histidine tag were removed by autodigestion of M^pro and human rhinovirus 3C protease (HRV), and undigested M^pro and HRV were removed using a binding agent for the histidine tag, to obtain a purified sample of M^pro protein. The purified M^pro protein was dissolved in a storage buffer of 20 mM Tris-HCl, 100 mM NaCl, 0.01% Triton-X-100, 50% glycerol, 1 mM EDTA, and 1 mM DTT, and then subjected to SDS-PAGE, followed by staining with Coomassie Brilliant Blue (FIG. 7). The purified M^pro protein dissolved in the storage buffer containing DTT was subjected to dialysis using a micro-dialysis cartridge, Xpress Micro/Mini Dialyzer (commercially available from Funakoshi Co., Ltd.), to remove the DTT, followed by subjecting the protein to the inhibitory activity test in Example 4.
After dissolving 2 μg/ml M^pro and 1 μM test compound in 50 mM Tris-HCl (pH 7.4) kept at 37° C., preincubation was carried out for 5 minutes. Thereafter, 10 μM Ac-Abu-Tle-Leu-Gln-MCA was added to the reaction solution, and the fluorescence intensity resulting from cleavage of Ac-Abu-Tle-Leu-Gln-MCA was measured using a fluorometer, to measure the inhibitory activity (FIG. 10). […] These serine-containing compounds with the exception of sodium selenite are compounds that were predicted to have M^pro inhibitory activity in an in-silico test (NPL 4). When the fluorescence intensity observed in the case without addition of a test compound was taken as 100, the fluorescence intensity measured 1 minute after the addition of the test compound was about 20% in the case of selenoneine.

Q: For C[Se]C[C@H](N)C(=O)O [methylselenocysteine], which “fluorescence intensity (case without test compound taken as 100)” value is on record?
A: more than 90%

Q: Which “fluorescence intensity (case without test compound taken as 100)” value does the source give for O=[Se](O)O [sodium selenite] here?
A: more than 90%

Q: With N[C@@H](C[Se][Se]C[C@H](N)C(=O)O)C(=O)O [selenocystine] as the compound, how does the “fluorescence intensity (case without test compound taken as 100)” value read?
A: more than 90%

Q: With C[Se]CC[C@H](N)C(=O)O [selenomethionine] as the compound, how does the “fluorescence intensity (case without test compound taken as 100)” value read?
A: more than 90%

Q: For c1ccc([Se][Se]c2ccccc2)cc1 [diphenyl diselenide], which “fluorescence intensity (case without test compound taken as 100)” value is on record?
A: more than 90%
